Construct, isoform or probe ends are uncertain for at least one entry.
System: His6-GB1-SinR + His6-ExpR
Test: EMSA
Conditions: 70 uM His-GB1-SinR, 1 uM His-ExpR, 10 uM 3-oxo-C16:1-HSL, SinR-dependent supershift, 20 mM HEPES-Na pH 7.5, 200 mM NaCl, 50 mM KCl, 20 mM MgCl2, 1 ug/ul BSA, 0.0025 U/ul sonicated sperm DNA, 0.1% DMSO, 2.75 nM DNA, recombinant protein, protein details: N-terminal His6-GB1,His6, label: Cy3 at 5' end of forward primer 264f, probe letters rebuilt from the primers and the genome

“CGTGATTACGCGATGTAGCGATGCTGTCAGGCTCGGATGACACATGTAACTGTCTATAGTGACAGTTTATTTCCTCATTTTTTCCCAATAGATTTGTGGGGGAATCTGCGGGTGGCCGGTCCTGTCCCGGGCCGGCAACCCGTCAGATGGTGGGGATCAGAGCATGTCGAACAGCGT (double strand) [sinI promoter 177 bp fragment]”: binds.
